Data taken from article PMC12034871.
Results are given in words; binding and its absence hold for the method and conditions named. Binding seen in cells or lysates may run through a third protein. Here binding means that the protein was enriched with, or labelled near, the bait; the list need not be complete.

Chains of the proteins cited; added tags and fusions are not shown. Residues count along the entry.
UniProt P13671, residues 22-934: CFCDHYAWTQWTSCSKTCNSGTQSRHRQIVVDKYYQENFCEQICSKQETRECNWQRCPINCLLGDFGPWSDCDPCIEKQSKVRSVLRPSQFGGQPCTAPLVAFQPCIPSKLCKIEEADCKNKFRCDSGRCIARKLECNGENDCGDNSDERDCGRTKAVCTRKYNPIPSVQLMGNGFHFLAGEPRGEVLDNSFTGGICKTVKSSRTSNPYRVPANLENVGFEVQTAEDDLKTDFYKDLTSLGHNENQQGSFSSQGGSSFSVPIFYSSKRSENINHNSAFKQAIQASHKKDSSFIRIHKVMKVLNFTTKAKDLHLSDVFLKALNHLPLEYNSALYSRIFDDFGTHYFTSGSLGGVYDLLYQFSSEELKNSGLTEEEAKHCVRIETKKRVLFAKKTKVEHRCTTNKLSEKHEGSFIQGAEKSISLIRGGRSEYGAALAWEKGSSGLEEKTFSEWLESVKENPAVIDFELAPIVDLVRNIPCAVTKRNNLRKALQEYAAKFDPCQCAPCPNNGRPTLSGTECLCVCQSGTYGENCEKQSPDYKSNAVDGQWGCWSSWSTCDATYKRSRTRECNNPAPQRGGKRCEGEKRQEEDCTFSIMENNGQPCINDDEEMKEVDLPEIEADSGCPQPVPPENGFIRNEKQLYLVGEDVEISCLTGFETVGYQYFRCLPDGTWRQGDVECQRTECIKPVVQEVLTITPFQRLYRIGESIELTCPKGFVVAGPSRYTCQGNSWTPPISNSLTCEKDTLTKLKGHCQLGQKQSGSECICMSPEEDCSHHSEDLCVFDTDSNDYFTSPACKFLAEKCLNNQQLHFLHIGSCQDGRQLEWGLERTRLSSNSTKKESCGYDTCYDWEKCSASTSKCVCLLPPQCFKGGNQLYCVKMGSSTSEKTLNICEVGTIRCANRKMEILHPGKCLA
UniProt P10643, residues 23-843: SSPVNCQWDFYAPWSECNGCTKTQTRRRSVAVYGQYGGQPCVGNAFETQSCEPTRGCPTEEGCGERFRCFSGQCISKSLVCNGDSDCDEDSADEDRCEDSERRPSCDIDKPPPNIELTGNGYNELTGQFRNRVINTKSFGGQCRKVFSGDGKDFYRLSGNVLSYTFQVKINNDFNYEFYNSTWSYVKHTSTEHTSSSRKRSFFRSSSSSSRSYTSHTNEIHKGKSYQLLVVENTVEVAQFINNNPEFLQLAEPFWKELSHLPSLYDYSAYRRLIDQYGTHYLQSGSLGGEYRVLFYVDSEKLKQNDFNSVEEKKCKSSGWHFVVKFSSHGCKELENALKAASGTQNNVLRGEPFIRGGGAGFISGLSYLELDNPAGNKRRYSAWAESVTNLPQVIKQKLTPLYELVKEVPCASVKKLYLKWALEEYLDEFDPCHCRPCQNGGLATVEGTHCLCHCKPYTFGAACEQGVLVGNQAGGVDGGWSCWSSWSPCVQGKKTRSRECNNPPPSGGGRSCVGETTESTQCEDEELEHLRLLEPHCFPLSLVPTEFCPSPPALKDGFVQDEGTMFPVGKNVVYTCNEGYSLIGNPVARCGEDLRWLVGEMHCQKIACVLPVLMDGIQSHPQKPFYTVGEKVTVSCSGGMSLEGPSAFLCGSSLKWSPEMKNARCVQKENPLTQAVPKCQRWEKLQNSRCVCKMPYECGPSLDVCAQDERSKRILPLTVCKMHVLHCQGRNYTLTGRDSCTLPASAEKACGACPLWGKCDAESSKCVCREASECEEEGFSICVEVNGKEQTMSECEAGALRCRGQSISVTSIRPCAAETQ

Biological target: complement component C6 (human (endogenous in serum)) (UniProt P13671)
Assay: affinity purification with mass spectrometry; control sera; in vitro complement activation, pull-down of C6 containing complexes using co-IP, then mass spectrometry

Q: For “complement component C7 (from UniProt P10643 23-843)”, which binding is on record?
A: binds
